In doi:10.1101/2021.05.30.446361:
These are yes or no findings as the source states them, for the method shown. Binding seen in cells or lysates may run through a third protein. Some results given as binding are weak or reduced against the parent protein; the word gives no strength.

The chains behind the UniProt entries cited, without tags or fusion partners.
UniProt Q9NPF5: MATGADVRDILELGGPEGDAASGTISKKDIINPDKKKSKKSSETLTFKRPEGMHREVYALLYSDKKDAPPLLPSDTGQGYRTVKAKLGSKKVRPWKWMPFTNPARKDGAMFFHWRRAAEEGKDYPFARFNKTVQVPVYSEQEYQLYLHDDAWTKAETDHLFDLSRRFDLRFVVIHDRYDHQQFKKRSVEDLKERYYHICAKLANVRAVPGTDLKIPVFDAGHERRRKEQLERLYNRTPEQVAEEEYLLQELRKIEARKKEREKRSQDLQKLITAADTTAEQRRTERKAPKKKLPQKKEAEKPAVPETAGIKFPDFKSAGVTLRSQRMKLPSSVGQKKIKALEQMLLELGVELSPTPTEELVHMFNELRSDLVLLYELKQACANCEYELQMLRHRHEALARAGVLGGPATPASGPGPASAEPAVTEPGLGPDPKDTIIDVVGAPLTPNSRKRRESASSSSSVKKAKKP
UniProt Q92993: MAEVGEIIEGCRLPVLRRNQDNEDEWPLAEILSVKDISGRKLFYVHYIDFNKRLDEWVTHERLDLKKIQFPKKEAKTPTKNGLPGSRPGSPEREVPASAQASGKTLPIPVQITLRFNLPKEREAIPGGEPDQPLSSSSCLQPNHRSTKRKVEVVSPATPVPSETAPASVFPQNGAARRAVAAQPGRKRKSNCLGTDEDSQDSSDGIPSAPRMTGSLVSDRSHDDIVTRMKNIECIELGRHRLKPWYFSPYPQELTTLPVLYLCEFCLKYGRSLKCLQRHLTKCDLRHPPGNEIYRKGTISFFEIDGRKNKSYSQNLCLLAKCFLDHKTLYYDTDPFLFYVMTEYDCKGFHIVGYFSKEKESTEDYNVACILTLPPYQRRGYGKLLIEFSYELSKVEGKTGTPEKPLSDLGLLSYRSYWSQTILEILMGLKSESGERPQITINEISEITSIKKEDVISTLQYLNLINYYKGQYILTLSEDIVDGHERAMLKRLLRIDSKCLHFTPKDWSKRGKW
UniProt P51532: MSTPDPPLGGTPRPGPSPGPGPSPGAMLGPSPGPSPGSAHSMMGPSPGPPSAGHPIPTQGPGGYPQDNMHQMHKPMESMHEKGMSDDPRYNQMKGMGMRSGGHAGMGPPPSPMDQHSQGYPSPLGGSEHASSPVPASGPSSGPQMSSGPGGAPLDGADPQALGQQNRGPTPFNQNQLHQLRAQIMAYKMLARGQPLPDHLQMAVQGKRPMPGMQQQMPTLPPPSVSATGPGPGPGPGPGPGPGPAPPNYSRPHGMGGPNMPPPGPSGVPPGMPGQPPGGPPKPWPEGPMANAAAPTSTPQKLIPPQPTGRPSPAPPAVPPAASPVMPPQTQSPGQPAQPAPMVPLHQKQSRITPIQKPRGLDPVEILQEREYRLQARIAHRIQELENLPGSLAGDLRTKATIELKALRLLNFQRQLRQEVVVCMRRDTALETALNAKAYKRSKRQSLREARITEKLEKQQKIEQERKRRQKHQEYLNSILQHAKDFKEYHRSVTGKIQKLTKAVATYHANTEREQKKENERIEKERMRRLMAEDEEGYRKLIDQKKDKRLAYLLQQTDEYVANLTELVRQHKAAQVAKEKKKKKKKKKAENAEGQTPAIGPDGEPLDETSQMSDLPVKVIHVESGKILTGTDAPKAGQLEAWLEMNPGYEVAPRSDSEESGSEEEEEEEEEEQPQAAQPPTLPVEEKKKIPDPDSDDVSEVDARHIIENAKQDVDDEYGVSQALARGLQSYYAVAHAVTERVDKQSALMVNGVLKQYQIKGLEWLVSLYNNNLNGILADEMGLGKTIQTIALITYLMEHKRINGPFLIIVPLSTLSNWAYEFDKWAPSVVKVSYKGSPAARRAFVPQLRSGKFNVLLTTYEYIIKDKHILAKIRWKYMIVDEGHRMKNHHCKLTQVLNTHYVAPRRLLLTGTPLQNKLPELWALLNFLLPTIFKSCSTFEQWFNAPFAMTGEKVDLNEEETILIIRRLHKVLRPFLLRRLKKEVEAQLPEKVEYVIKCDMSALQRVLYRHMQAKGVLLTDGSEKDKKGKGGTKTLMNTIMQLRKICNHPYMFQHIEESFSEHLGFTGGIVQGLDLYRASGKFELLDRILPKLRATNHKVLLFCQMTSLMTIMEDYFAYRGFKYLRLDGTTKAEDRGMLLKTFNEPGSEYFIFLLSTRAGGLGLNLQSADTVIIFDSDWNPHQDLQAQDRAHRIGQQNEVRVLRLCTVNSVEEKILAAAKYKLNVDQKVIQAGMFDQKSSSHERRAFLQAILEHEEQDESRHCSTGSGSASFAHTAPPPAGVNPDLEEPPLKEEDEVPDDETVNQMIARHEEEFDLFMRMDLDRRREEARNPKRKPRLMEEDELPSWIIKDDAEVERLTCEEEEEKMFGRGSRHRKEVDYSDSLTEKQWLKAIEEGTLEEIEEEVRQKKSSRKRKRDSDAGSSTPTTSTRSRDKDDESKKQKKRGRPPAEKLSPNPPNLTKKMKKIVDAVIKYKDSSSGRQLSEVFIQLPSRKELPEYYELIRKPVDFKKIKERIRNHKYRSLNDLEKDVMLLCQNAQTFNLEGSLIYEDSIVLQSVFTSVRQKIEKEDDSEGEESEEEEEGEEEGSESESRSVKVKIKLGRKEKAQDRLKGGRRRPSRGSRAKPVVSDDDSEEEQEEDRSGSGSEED
UniProt Q9Y265: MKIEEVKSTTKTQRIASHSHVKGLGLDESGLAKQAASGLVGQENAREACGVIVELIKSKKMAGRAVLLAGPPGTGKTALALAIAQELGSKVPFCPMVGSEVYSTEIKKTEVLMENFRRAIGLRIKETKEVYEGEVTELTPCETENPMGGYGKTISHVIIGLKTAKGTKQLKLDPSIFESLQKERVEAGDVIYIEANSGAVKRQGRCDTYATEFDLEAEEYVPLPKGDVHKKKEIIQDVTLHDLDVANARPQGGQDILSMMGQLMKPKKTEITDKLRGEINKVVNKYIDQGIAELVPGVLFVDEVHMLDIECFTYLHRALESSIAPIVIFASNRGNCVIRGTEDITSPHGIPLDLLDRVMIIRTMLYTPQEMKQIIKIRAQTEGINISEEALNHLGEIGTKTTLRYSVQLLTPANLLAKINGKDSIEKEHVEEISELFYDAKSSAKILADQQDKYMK

What was measured:
FLAG-DMAP1 (human) = FLAG-DMAP1 (human) (UniProt Q9NPF5); assay: co-IP
[1] = molecular target: FLAG-TIP60 (bait of the hNuA4 complex) (human) (UniProt Q92993); assay: co-IP

Row | binding (FLAG-DMAP1 (human)) | binding [1] | Substance
1 | binds | no binding | BRG1, core ATPase subunit of the human SWI/SNF chromatin remodelling complexes (from UniProt P51532 1-1647)
2 | – | binds | RuvBL1 (from UniProt Q9Y265 1-456)
